We go through 1 molecule from PMC8042982.

By UniProt entry, the sequences of proteins in these tests, tags left out.
UniProt Q92993: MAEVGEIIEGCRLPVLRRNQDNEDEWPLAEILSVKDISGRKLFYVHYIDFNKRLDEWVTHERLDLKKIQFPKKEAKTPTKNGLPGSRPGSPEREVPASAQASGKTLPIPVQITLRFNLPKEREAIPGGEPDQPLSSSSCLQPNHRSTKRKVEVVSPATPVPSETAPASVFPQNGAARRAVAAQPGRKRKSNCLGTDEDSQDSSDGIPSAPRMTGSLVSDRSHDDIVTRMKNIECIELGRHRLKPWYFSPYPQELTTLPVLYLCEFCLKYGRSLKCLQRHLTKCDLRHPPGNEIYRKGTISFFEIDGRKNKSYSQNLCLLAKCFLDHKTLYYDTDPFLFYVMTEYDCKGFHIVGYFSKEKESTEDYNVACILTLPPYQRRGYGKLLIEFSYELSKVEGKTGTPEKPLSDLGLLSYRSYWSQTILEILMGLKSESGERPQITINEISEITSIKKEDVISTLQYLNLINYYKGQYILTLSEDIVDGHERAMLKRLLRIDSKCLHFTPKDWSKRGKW

No constants are given. Whether binding was seen depends on the method and setting. In cells and extracts the contact can be indirect. Some entries that bind do so weakly or less than the wild type. Tags and fused reporters may be left off the sequences shown.

In this assay the target is TIP60-HA (UniProt Q92993). Briefly: co-IP; HEK293T cells co-transfected, whole cell extracts 24 h after transfection (50 mM Tris pH 8, 150 mM NaCl, 5 mM EDTA, 0.5% NP40, 1 mM DTT), sonicated; IP with anti-HA tag antibody (µMACS isolation kit for tagged proteins), eluates immunoblotted. On the technique in general: A western blot detects proteins with antibodies after separation by electrophoresis.

B1: FE65-EGFP (protein, UniProt O00213 1-710)
chain: MSVPSSLSQSAINANSHGGPALSLPLPLHAAHNQLLNAKLQATAVGPKDLRSAMGEGGGPEPGPANAKWLKEGQNQLRRAATAHRDQNRNVTLTLAEEASQEPEMAPLGPKGLIHLYSELELSAHNAANRGLRGPGLIISTQEQGPDEGEEKAAGEAEEEEEDDDDEEEEEDLSSPPGLPEPLESVEAPPRPQALTDGPREHSKSASLLFGMRNSAASDEDSSWATLSQGSPSYGSPEDTDSFWNPNAFETDSDLPAGWMRVQDTSGTYYWHIPTGTTQWEPPGRASPSQGSSPQEESQLTWTGFAHGEGFEDGEFWKDEPSDEAPMELGLKEPEEGTLTFPAQSLSPEPLPQEEEKLPPRNTNPGIKCFAVRSLGWVEMTEEELAPGRSSVAVNNCIRQLSYHKNNLHDPMSGGWGEGKDLLLQLEDETLKLVEPQSQALLHAQPIISIRVWGVGRDSGRERDFAYVARDKLTQMLKCHVFRCEAPAKNIATSLHEICSKIMAERRNARCLVNGLSLDHSKLVDVPFQVEFPAPKNELVQKFQVYYLGNVPVAKPVGVDVINGALESVLSSSSREQWTPSHVSVAPATLTILHQQTEAVLGECRVRFLSFLAVGRDVHTFAFIMAAGPASFCCHMFWCEPNAASLSEAVQAACMLRYQKCLDARSQASTSCLPAPPAESVARRVGWTVRRGVQSLWGSLKPKRLGAHTP
On to B1, for which the binding entry is reported as “binds”.
